This is an account of results in patent US20210106547A1, “Managing Cardiovascular Conditions Associated with Kidney Disease” (Emory University, priority 2019, published 2021).

Data set [1] relates to C57BL/6 wild type mice. Kind of data set: Cardiac echocardiographic analysis of mice after 5/6 nephrectomy and DMTU treatment. Type of data set: in vivo, mouse. As to the method:
(§1) Experiment of C57BL/6 wild type mice. Mice underwent 5/6 nephrectomy surgery. Mice were fed 14% protein diet (0 weeks to 2 weeks), 23% protein diet (2 weeks to 6 weeks), and 40% protein diet (6 weeks to 8 weeks). Mice drank 1% NaCl water one week to six weeks after second surgery, and dimethylthiourea (DMTU; UT-A inhibitor) was administered by osmotic mini pump.
(§2) Since an increase in UT-A is associated with an increase in fibrosis proteins in vitro and in vivo, experiments were performed to determine whether inhibition of UT-A could prevent fibrosis in the heart of CKD mice. Mice were randomly divided into four cohorts: sham+vehicle, sham+DMTU, 5/6Nx+vehicle, and 5/6Nx+DMTU. Mini-pumps were used for DMTU administration (100 mg/kgBW/day). The phenotypic characteristics of mice were determined 8 weeks after completing the 5/6Nx (Table 1).
Both intraventricular septum (IVS) and posterior wall thicknesses (PW) were greatest in 5/6Nx+vehicle than all other three groups (Table 2).

The subject of data set [2] is C57BL/6 wild type mice. Kind of data set: Phenotypic characteristics of sham and 5/6Nx mice 8 weeks after 5/6 nephrectomy, DMTU by osmotic mini pump. Type of data set: in vivo, mouse. The method, then:
as §1, §2

`CNC(=S)NC` [DMTU, N,N′-dimethylthiourea]: the BW in the data set on C57BL/6 wild type mice [1] (5/6Nx + DMTU) is given as 25.8 ± 0.6 g; with C57BL/6 wild type mice [1] (sham + DMTU) it was 25.8 ± 1.2 g. For the same molecule, the “Final BW” value in the data set on C57BL/6 wild type mice [2] (5/6Nx + DMTU) worked out at 26.4 ± 0.5 g; in the data set on C57BL/6 wild type mice [2] (sham + DMTU), 25.9 ± 1.1 g.
